Laboratory results taken from article PMC10217904.
These are yes or no findings as the source states them, for the method shown. For some assays here: A result given as binding can be weak or reduced; the word gives no strength. Where a sequence is shown, tags or fusion partners need not be part of it. For some assays here: In cells and extracts the contact can be indirect. Values belong to the molecule of their own block, whether it stands above or below them.

Key:
[1] = target: T1, Arabidopsis prohibitin 3 (PHB3) in pGBKT7 (BD, bait) (Arabidopsis) (UniProt O04331); assay: two-hybrid; bait in pGBKT7 (BD), prey in pGADT7 (AD), cotransformed into yeast Y2H Gold; growth on DDO, QDO and QDO/X-α-Gal media
T1 sequence: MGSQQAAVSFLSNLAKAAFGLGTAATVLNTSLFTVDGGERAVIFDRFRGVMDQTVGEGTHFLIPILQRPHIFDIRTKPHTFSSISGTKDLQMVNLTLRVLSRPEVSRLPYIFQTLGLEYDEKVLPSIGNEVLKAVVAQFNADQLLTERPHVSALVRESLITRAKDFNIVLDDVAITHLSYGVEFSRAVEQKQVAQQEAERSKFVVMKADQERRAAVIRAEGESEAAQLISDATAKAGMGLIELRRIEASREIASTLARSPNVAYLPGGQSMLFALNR

[2] = target: F1-ATPase subunit β (ATPβ) in pGBKT7 (BD, bait) (Arabidopsis); assay: as above
[3] = target: F1-ATPase subunit δ (ATPδ) in pGBKT7 (BD, bait) (Arabidopsis); assay: as above
cLUC-ATPβ (Arabidopsis) = assay: split reporter; luciferase complementation imaging (LCI): nLUC and cLUC fusions co-infiltrated 1:1 into N. benthamiana leaves, imaged 48 h after infiltration with 1 mM luciferin
cLUC-ATPδ (Arabidopsis) = assay: as above

binding [1]: no binding
Molecule: Fo-ATPase subunit a (ATPa) in pGADT7 (AD, prey) (Arabidopsis)

binding [2]: binds
binding [3]: binds
B1: Arabidopsis prohibitin 3 (PHB3) in pGADT7 (AD, prey) (protein, UniProt O04331 1-277)
chain: T1 sequence

binding (cLUC-ATPβ (Arabidopsis)): binds
binding (cLUC-ATPδ (Arabidopsis)): binds
B2: nLUC-PHB3 (protein, UniProt O04331 1-277)
chain: T1 sequence
